Assay results from article PMC9803661.
These are yes or no findings as the source states them, for the method shown. In cells and extracts the contact can be indirect. Binding can be weak; no strength is given.

Target: T1, Mage-D1 (MAGE family member D1; melanoma-associated antigen D1) (rat (endogenous in E19.5 d EMSCs)) (UniProt Q9ES73)
T1 sequence: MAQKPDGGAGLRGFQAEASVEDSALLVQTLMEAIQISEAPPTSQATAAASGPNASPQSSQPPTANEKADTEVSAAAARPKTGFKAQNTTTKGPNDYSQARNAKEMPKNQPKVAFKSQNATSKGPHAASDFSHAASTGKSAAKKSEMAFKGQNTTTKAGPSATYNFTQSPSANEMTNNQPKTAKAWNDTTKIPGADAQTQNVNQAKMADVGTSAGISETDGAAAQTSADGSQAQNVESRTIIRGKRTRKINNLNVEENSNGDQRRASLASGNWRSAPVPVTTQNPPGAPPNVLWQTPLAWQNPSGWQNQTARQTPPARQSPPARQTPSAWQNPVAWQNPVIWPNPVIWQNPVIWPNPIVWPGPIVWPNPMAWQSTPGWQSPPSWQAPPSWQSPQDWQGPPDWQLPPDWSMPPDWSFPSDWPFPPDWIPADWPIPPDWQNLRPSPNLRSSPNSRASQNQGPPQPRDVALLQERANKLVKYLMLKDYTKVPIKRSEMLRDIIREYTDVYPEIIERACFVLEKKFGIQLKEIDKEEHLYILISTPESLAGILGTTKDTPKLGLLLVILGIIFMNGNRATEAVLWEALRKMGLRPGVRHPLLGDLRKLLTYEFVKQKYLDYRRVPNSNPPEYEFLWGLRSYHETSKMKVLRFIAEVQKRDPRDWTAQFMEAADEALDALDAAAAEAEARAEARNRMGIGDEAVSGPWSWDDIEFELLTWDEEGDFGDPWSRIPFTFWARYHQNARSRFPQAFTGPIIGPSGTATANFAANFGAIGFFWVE
Assay: co-IP; magnetic beads with rabbit polyclonal anti-Mage-D1 antibody (2 h), then E19.5 d rat EMSC protein lysate overnight at 4 °C; Western blot for p75NTR, Dlx1, Msx1

binding: binds
Substance: msh homeobox 1 (Msx1) (rat (endogenous in E19.5 d EMSCs))
